Experimental data: patent publication US5223526A, “Pyrazole carboxanilide fungicides and use” (Monsanto Company, priority 1992, dated 1993)
Some of these results come from one statement about several compounds together.

System: Botrytis
Assay: Field tests, vineyards
Type: in vivo
Settings: 0.01 to 2.0 kg active ingredient per hectare

Cn1nc(C(F)F)c(C(=O)Nc2ccccc2C2CCCCCC2)c1F [Example 115, 1H-pyrazole-4-carboxamide, N-(2-cycloheptylphenyl)-3-(difluoromethyl)-5-fluoro-1-methyl-]
incidence of Botrytis compared to untreated fields: reduce the incidence of Botrytis compared to untreated fields

Cc1cccc(NC(=O)c2cn(C)nc2C(F)F)c1C1CCCCC1 [Example 20, 1H-pyrazole-4-carboxamide, N-(2-cyclohexyl-3-methylphenyl)-3-(difluoromethyl)-1-methyl-]
incidence of Botrytis compared to untreated fields: reduce the incidence of Botrytis compared to untreated fields

Cn1cc(C(=O)Nc2ccccc2O[C@@H]2C[C@H]3CC[C@@H]2C3)c(C(F)(F)F)n1 (relative stereo) [Example 81]
incidence of Botrytis compared to untreated fields: reduce the incidence of Botrytis compared to untreated fields

Cn1cc(C(=O)Nc2cc(F)ccc2C2CCCCC2)c(C(F)F)n1 [Example 16, 1H-pyrazole-4-carboxamide, N-(2-cyclohexyl-5-fluorophenyl)-3-(difluoromethyl)-1-methyl-]
incidence of Botrytis compared to untreated fields: reduce the incidence of Botrytis compared to untreated fields

Cc1cccc(NC(=O)c2cn(C)nc2C(F)(F)F)c1C1CCCCC1 [Example 19, 1H-pyrazole-4-carboxamide, N-(2-cyclohexyl-3-methylphenyl)-1-methyl-3-(trifluoromethyl)-]
incidence of Botrytis compared to untreated fields: reduce the incidence of Botrytis compared to untreated fields

Cn1cc(C(=O)Nc2ccccc2C2CCCCCC2)c(Br)n1 [Example 63, 1H-pyrazole-4-carboxamide, 3-bromo-N-(2-cycloheptylphenyl)-1-methyl-]
incidence of Botrytis compared to untreated fields: reduce the incidence of Botrytis compared to untreated fields

Cn1cc(C(=O)Nc2ccccc2C2CC(C)(C)CC(C)(C)C2)c(C(F)(F)F)n1 [Example 139, 1H-pyrazole-4-carboxamide, 1-methyl-N-[2-(3,3,5,5-tetramethylcyclohexyl)phenyl]-3-(trifluoromethyl)-]
incidence of Botrytis compared to untreated fields: reduce the incidence of Botrytis compared to untreated fields

Cn1cc(C(=O)Nc2cccc(F)c2C2CCCCC2)c(C(F)F)n1 [Example 17, 1H-pyrazole-4-carboxamide, N-(2-cyclohexyl-3-fluorophenyl)-3-(difluoromethyl)-1-methyl-]
incidence of Botrytis compared to untreated fields: reduce the incidence of Botrytis compared to untreated fields

Cn1cc(C(=O)Nc2ccccc2C2(C)CCCC2)c(C(F)(F)F)n1 [Example 67, 1H-pyrazole-4-carboxamide, 1-methyl-N-[2-(1-methylcyclopentyl)phenyl]-3-(trifluoromethyl)-]
incidence of Botrytis compared to untreated fields: reduce the incidence of Botrytis compared to untreated fields

Cn1cc(C(=O)Nc2ccccc2C2CCCCC2)c(Br)n1 [Example 5, 1H-pyrazole-4-carboxamide, 3-bromo-N-(2-cyclohexylphenyl)-1-methyl-]
incidence of Botrytis compared to untreated fields: reduce the incidence of Botrytis compared to untreated fields

CC1=C(c2ccccc2NC(=O)c2cn(C)nc2C(F)F)C(C)CCC1 (centres unmarked) [Example 124, 1H-pyrazole-4-carboxamide, 3-(difluoromethyl)-N-[2-(2,6-dimethyl-1-cyclohexen-1-yl)phenyl]-1-methyl-]
incidence of Botrytis compared to untreated fields: reduce the incidence of Botrytis compared to untreated fields

Cn1cc(C(=O)Nc2ccccc2C=C2CCCCCC2)c(C(F)F)n1 [Example 147, 1H-pyrazole-4-carboxamide, N-[2-(cycloheptylidenemethyl)phenyl]-1-methyl-3-(difluoromethyl)-]
incidence of Botrytis compared to untreated fields: reduce the incidence of Botrytis compared to untreated fields

Cc1c(C(=O)Nc2ccccc2[C@@H]2C[C@H]3CC[C@@H]2C3)c(C(F)(F)F)nn1C (relative stereo) [Example 100, 1H-pyrazole-4-carboxamide, N-(2-bicyclo[2.2.1]hept-2-ylphenyl)-1,5-dimethyl-3-(trifluoromethyl)-, exo-]
incidence of Botrytis compared to untreated fields: reduce the incidence of Botrytis compared to untreated fields

Cn1cc(C(=O)Nc2ccccc2OCCC2CCCC2)c(C(F)(F)F)n1 [Example 55, 1H-pyrazole-4-carboxamide, N-[2-(2-cyclopentylethoxy)phenyl]-1-methyl-3-(trifluoromethyl)-]
incidence of Botrytis compared to untreated fields: reduce the incidence of Botrytis compared to untreated fields

C[C@H]1CCC[C@H](c2ccccc2NC(=O)c2cn(C)nc2C(F)(F)F)C1 (relative stereo) [Example 70, 1H-pyrazole-4-carboxamide, 1-methyl-N-[2-(3-methylcyclohexyl)-phenyl]-3-(trifluoromethyl)-, trans-]
incidence of Botrytis compared to untreated fields: reduce the incidence of Botrytis compared to untreated fields

Cn1nc(C(F)(F)F)c(C(=O)Nc2ccccc2[C@@H]2C[C@H]3CC[C@@H]2C3)c1F (relative stereo) [Example 85, 1H-pyrazole-4-Carboxamide, N-(2-bicyclo[2.2.1]hept-2-ylphenyl)-5-fluoro-1-methyl-3-(trifluoromethyl)-, exo-]
incidence of Botrytis compared to untreated fields: reduce the incidence of Botrytis compared to untreated fields

Cn1cc(C(=O)Nc2ccccc2CC2CCCCC2)c(C(F)(F)F)n1 [Example 130, 1H-pyrazole-4-carboxamide, N-[2-(cyclohexylmethyl)phenyl]-1-methyl-3-(trifluoromethyl)-]
incidence of Botrytis compared to untreated fields: reduce the incidence of Botrytis compared to untreated fields

Cn1cc(C(=O)Nc2ccccc2C2=CCC(C(C)(C)C)CC2)c(C(F)(F)F)n1 (centres unmarked) [Example 133, 1H-pyrazole-4-carboxamide, N-[2-[4-(1, -dimethylethyl)-1-cyclohexen-1-yl]phenyl]-1-methyl-3-(trifluoromethyl)-]
incidence of Botrytis compared to untreated fields: reduce the incidence of Botrytis compared to untreated fields

Cc1nn(C)c(F)c1C(=O)Nc1ccccc1C1CCCCCC1 [Example 113, 1H-pyrazole-4-carboxamide, N-(2-cycloheptylphenyl)-5-fluoro-1,3-dimethyl-]
incidence of Botrytis compared to untreated fields: reduce the incidence of Botrytis compared to untreated fields

Cn1cc(C(=O)Nc2cc(Br)cc(Br)c2C2CCCCC2)c(C(F)(F)F)n1 [Example 136, 1H-pyrazole-4-carboxamide, N-(3,5-dibromo-2-cyclohexylphenyl)-1-methyl-3-(trifluoromethyl)-]
incidence of Botrytis compared to untreated fields: reduce the incidence of Botrytis compared to untreated fields

Cc1nn(C)c(Cl)c1C(=O)Nc1ccccc1C1CCCCCC1 [Example 107, 1H-pyrazole-4-carboxamide, 5-chloro-N-(2-cycloheptylphenyl)-1,3-dimethyl-]
incidence of Botrytis compared to untreated fields: reduce the incidence of Botrytis compared to untreated fields

Cn1cc(C(=O)Nc2ccccc2OCCCC2CCCC2)c(C(F)(F)F)n1 [Example 49, 1H-pyrazole-4-carboxamide, N-[2-(3-cyclopentylpropoxy)phenyl]-1-methyl-3-(trifluoromethyl)-]
incidence of Botrytis compared to untreated fields: reduce the incidence of Botrytis compared to untreated fields

Cn1cc(C(=O)Nc2ccccc2C2=CCCCC2)c(C(F)(F)F)n1 [Example 110, 1H-pyrazole-4-carboxamide, N-[2-(1-cyclohexen-1-yl)phenyl]-1-methyl-3-(trifluoromethyl)-]
incidence of Botrytis compared to untreated fields: reduce the incidence of Botrytis compared to untreated fields
